Source: the supplement of paper PMC5949888
Most values lie at the floor of the assay. Slopes are relative: functional sequences can read slightly below zero.

test system: Saccharomyces cerevisiae PS128 hsf1 delta, HSF1(1-493) fusion; assay: growth estimate (transactivation domain function in HSF1 fusion, heat-shock survival) (a.u. (slope of normalised read count over time)); higher = stronger growth at 37°C, i.e. more transactivation activity; conditions: library: random library

| Substance | growth estimate |
| --- | --- |
| VHLEPTVRVCILWSHSSGDP | < -0.25 |
| SVRIPSEQPNSA | < -0.25 |
| TQENKRRDT | < -0.25 |
| ANRFQVWCLLAWQRLYDLRI | < -0.25 |
| EINVKG | < -0.25 |
| VWGYRTTAVGPWGQVLIRRC | < -0.25 |
| NLAWT | < -0.25 |
| NNIRWEIHKIHQPTSNNLAP | -0.229 |
| ASAWADISCFELTARIAL | < -0.25 |
| GEKISC | < -0.25 |
| QMLLEIAGSFPSPAASLWRL | < -0.25 |
| LRFAYRRGRAIMNHL | < -0.25 |
| DLSRGRASGGAL | < -0.25 |
| TVTASIRAL | < -0.25 |
| STALRGRALNVNLPTVPLGD | < -0.25 |
| LALKGAERSPDL | < -0.25 |
| KQCGHSTSSRKCDSRCIYIC | < -0.25 |
| IPLGLDVMVYGLWQ | < -0.25 |
| LAV | < -0.25 |
| TGVSRYGIHSAIRCAVGPAS | < -0.25 |
| GLHVRARRVP | < -0.25 |
| GYGGAAREDPQF | < -0.25 |
| RYQQKSLAVPWYQWPRCL | < -0.25 |
| ITSRSEDIRETSALVQSDGV | < -0.25 |

Not a retest: entries from further up.

| Substance | growth estimate |
| --- | --- |
| NNIRWEIHKIHQPTSNNLAP | -0.229 |
| ASAWADISCFELTARIAL | < -0.25 |
| GEKISC | < -0.25 |
| QMLLEIAGSFPSPAASLWRL | < -0.25 |
| LRFAYRRGRAIMNHL | < -0.25 |
| DLSRGRASGGAL | < -0.25 |
| TVTASIRAL | < -0.25 |
| STALRGRALNVNLPTVPLGD | < -0.25 |
| LALKGAERSPDL | < -0.25 |
| KQCGHSTSSRKCDSRCIYIC | < -0.25 |
| IPLGLDVMVYGLWQ | < -0.25 |
| LAV | < -0.25 |
| TGVSRYGIHSAIRCAVGPAS | < -0.25 |
| GLHVRARRVP | < -0.25 |
| GYGGAAREDPQF | < -0.25 |
| RYQQKSLAVPWYQWPRCL | < -0.25 |

(cont.)

| Substance | growth estimate |
| --- | --- |
| LIGLSVNAHCLVQGVETAIR | < -0.25 |
| VWVTDMGYK | < -0.25 |
| LAPVINREISANRQVARGLD | < -0.25 |
| RQIVH | < -0.25 |
| SSLIEFGRG | < -0.25 |
| NVTTVGKGWRLNTGGFSGVA | < -0.25 |
| VTRIKSIETGFRFGGISSAS | < -0.25 |
| HVTVKFLSRQS | < -0.25 |
| FHNQYKLVV | < -0.25 |
| SLHSSHAVKAWTKRWQGKTR | < -0.25 |
| RLVSAAPKPAESQVTHVSSH | < -0.25 |
| VNPVGPQDRSMDLGGSVCAR | < -0.25 |
| MTAAAGKFRALHEILSRP | < -0.25 |
| HQALSTGTGSES | < -0.25 |
| RAEETRDS | < -0.25 |
| DTLTIRGPCFRETTQNT | < -0.25 |
| KCPTTERKQGGSVASI | < -0.25 |
| KTSGYRRNDGEDMGGLYAGS | < -0.25 |
| STSRGTC | < -0.25 |
| QLAAYEGDRAYSIHCRK | < -0.25 |
| KSEEDRHGKEAMSLGSTLCG | < -0.25 |
| AITLETAGRVVEVLS | < -0.25 |
| LFWLVNTWLMGGVVQHVEEE | < -0.25 |
| CTAGVR | < -0.25 |

| Substance | growth estimate |
| --- | --- |
| TNPT | < -0.25 |
| GLSRGCAAWRIWLRVMNVTG | < -0.25 |
| SRRSFGTASGVAPARY | < -0.25 |
| TQCFSIVP | < -0.25 |
| WPGRVEMLARVDYTDQRTKR | < -0.25 |
| VHGECTGATDRHFRQLSLEV | < -0.25 |
| LGHGLGSCQSDSVRAVGPDL | < -0.25 |
| HASCVVVTNRSAPCLFSRGL | < -0.25 |
| NREYCCVREYCREALNGVAP | < -0.25 |
| GVSVD | < -0.25 |
| QVLELCSWS | < -0.25 |
| TVRSEL | < -0.25 |
| SAFVSLMTCIS | < -0.25 |
| YWDVLSVPLGG | < -0.25 |
| LEGRIRPKLGPLAHDLSLAV | < -0.25 |
| IKKGQILRNLERADPGGPTR | < -0.25 |
| NFFPANTVGLGTMIRSADKC | < -0.25 |
| VRVKSLRREVSWSP | < -0.25 |
| LTRTGEPGACSEDRLRRHTR | < -0.25 |
| LHRNHGNPPAERGLLVSLFT | < -0.25 |
| MGLPWSPRDP | < -0.25 |
| PTRLERR | < -0.25 |
| HDAERSN | < -0.25 |
| SRRRLSVLIVFIRMTNAVR | < -0.25 |
